Test results as given in the odorant receptor screen of Mainland et al. (2015).
“And” between values parts separate entries of the source, which are not always exact repeats. Equal values may be shown once. Some of the results follow. Each value is one well over the wells without odorant, computed here; the data are noisy.

Assays:
Assay in all cases: odorant receptor activation (CRE luciferase / Renilla) (fold of no-odor wells); higher = more activation
Settings in all cases: 100 µM
[1] = test system: OR4F15 clone 1074
[2] = test system: OR4F15 clone 1434
[3] = test system: OR4F16 clone 1060
[4] = test system: OR4F17 clone 1161
[5] = test system: OR4F21 clone 1580
[6] = test system: OR4F4 clone 1556
[7] = test system: OR4F5 clone 1557
[8] = test system: OR4F6 clone 1058
[9] = test system: OR4F6 clone 1537
[10] = test system: OR4K1 R89H clone 1269

Structure (SMILES)	odorant receptor activation [1]	odorant receptor activation [2]	odorant receptor activation [3]	odorant receptor activation [4]	odorant receptor activation [5]	odorant receptor activation [6]	odorant receptor activation [7]	odorant receptor activation [8]	odorant receptor activation [9]	odorant receptor activation [10]
CC(=O)OC1CC2CCC1(C)C2(C)C (centres undefined) [isobornyl acetate]	1.1	1.06	0.544	1.3	0.69	1.32	1.48	0.983	1.24 and 1.05	1.05 and 0.568
CCCCCCCC=O [octyl aldehyde]	1.18	0.823	1.89	1.25	0.99	0.904	0.957	1.12	0.892	0.978
CC12C=CCC1C1CCC3CC(=O)CCC3(C)C1CC2 (centres undefined) [androstenone]	1.56	1.4	2.1	7.77	–	–	–	1.8	1.07	1.03
CC1=NC(C)SC1C (centres undefined)	0.564	0.987	0.881	0.862	–	–	–	0.817	0.67 and 0.963	4.23
CC(C)C(=O)O [isobutyric acid]	1.17	0.879	0.657	1.41	0.606	1.01	1.23	0.993	1.03 and 0.839	1.11 and 0.569
c1cnccn1 [pyrazine]	1.29	1.07	1.07	1.05	0.896	0.872	0.859	1.1	1	0.689
C=CCc1ccc(OC(C)=O)c(OC)c1 [eugenol acetate]	1.3	1.75	1.59	1.45	1.97	2.12	2.48	1.72	1.87	1.63
CC(=O)c1ccccc1 [acetophenone]	0.917	1.06	0.587	1.39	–	–	–	1.26	1.12 and 0.989	1.67
C=CCc1ccc(O)c(OC)c1 [eugenol]	0.865 and 1.26	1.3 and 1.54	1.8 and 1.05	3.21 and 1.16	1.05	1.23	1.56	1.19 and 1.4	1.39 and 1.34 and 1.29	1.29 and 1.36
C=C(C)C1CCC2=CC(=O)CC(C)C2(C)C1 (centres undefined) [amyl laurate]	–	–	–	–	1.16	1.84	1.01	–	–	–
CCCCCCCCC=O [nonyl aldehyde]	0.916	0.893	0.955	1.02	1.25	1.02	0.999	1.12	1	0.796
CCC1(O)C2(C)CCC(C2)C1(C)C (centres undefined) [2-ethylfenchol]	3.21	1.57	3.2	1.01	0.689	1.36	1.14	4.05	1.39	1.19
COC(=O)c1ccccc1 [methyl benzoate]	1.12	0.696	0.718	1.41	–	–	–	1.71	0.828 and 1.02	0.811
CC(C)C=O [isobutyraldehyde]	1.34	0.99	0.635	1.08	0.629	1.03	1.39	0.964	0.903 and 0.957	0.938 and 0.676
CC1COCc2cc3c(cc21)C(C)(C)C(C)C3(C)C (centres undefined) [galaxolide]	3.02	2.56	3.25	3.28	–	1.47 and 3.89	1.82 and 2.4	2.62	–	1.55 and 4.56
CC12CCC(C1)C(C)(C)C2=O (centres undefined) [fenchone]	0.781	0.936	1.06	0.884	0.647	0.621	0.915	1.23	1.18	1.12

Reformatted: results already given.
Structure (SMILES) | odorant receptor activation [1] | odorant receptor activation [2] | odorant receptor activation [3] | odorant receptor activation [4] | odorant receptor activation [5] | odorant receptor activation [6] | odorant receptor activation [7] | odorant receptor activation [8] | odorant receptor activation [9] | odorant receptor activation [10]
C=CCc1ccc(OC(C)=O)c(OC)c1 [eugenol acetate] | 1.3 | 1.75 | 1.59 | 1.45 | 1.97 | 2.12 | 2.48 | 1.72 | 1.87 | 1.63
CC(=O)c1ccccc1 [acetophenone] | 0.917 | 1.06 | 0.587 | 1.39 | – | – | – | 1.26 | 1.12 and 0.989 | 1.67

The listing continues.

Structure (SMILES)	odorant receptor activation [1]	odorant receptor activation [2]	odorant receptor activation [3]	odorant receptor activation [4]	odorant receptor activation [5]	odorant receptor activation [6]	odorant receptor activation [7]	odorant receptor activation [8]	odorant receptor activation [9]	odorant receptor activation [10]
CC(C)(C)c1ccc(CCC=O)cc1 [bourgeonal]	0.881	0.169	0.737	0.884	–	–	–	0.783	0.847	0.934
CC(C)(O)CCCC1=CCC(C=O)CC1 (centres undefined) [lyral]	–	–	–	–	1.01	2.92	1.27	–	–	–
CC12C=CCC1C1CCC3=CC(=O)CCC3(C)C1CC2 (centres undefined) [androstadienone]	1.58	0.911	0.766	1	–	–	–	1.55	1.07 and 1.13	1.02 and 0.733
CCCCCC(=O)O [caproic acid]	1.06	0.172	0.873	1.05	1.03	0.971	1	0.937	1.04	1.04
CC12CCC(CC1)C(C)(C)O2 [cineole]	0.969	0.182	0.823	0.751	0.957	0.875	0.871	0.938	0.88	1.31
CC1CCC(C(C)C)C(O)C1 (single isomer, unassigned; (+)) [(+)-menthol]	3.57	1.33	4	1.25	0.861	1.32	1.56	3.2	1.17	1.09
CC1CCC(C(C)C)C(O)C1 (single isomer, unassigned; (-)) [(-)-menthol]	2.6	1.49	3.14	1.2	0.983	1.57	1.64	3.36	3.08	0.854
CC(C)CCC(=O)O [4-methylvaleric acid]	1.85	1.44	1.95	1.5	0.694	1.25	1.53	1.66	0.936	1.27
CCCCCCC=O [heptaldehyde]	0.788 and 1.87	0.975 and 0.817	0.843 and 0.705	0.471 and 0.858	0.775	0.747	0.806	1.68 and 2.07	–	0.683 and 0.997 and 0.76
CCCC(=O)O [butyric acid]	1.23	0.213	1.18	1.04	1.57	1.07	1.03	1.19	1.13	1.14
C=CC(C)(O)CCC=C(C)C (centres undefined) [linalool]	1.07	1.1	1.42	0.863	0.675	1.1	1.06	1.32	0.926	0.954
CCCCCCCCCCC=O [undecanal]	1.09	1.16	1.06	1.1	1.05	2.81	1.22	1.11	1.06	0.776
O=C1CCCCC1 [Cyclohexanone]	1.73	1.02	0.81	0.721	–	–	–	0.388	0.589 and 0.801	0.624
CC(=O)C(C)=O [diacetyl]	0.864	1.22	0.935	1.1	0.574	0.931	0.966	1.07	1.61	0.993
CCCCCC(C)=O [2-heptanone]	0.611	0.83	1.17	1.12	–	–	–	1.54	0.71 and 0.624	1.19
